PubChem BioAssay AID504784 | Drosophila RNAi Screening Center, 2011
Purpose: 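Genome-wide knock-down for genes giving too much or too little stored lipid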 (primary screen). Cell system: Drosophila Kc167 embryonic cells. Knock-down reagent: long dsRNA against Drosophila genes, about 250 ng dsRNA per well. Time to read-out: 4 days. Challenge: cells fed 400 µM oleic acid bound to BSA. Read-out: 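Cells imaged and segmented; ratio of lipid droplet area to nuclear area, log-transformed, then normalised as a B-score over the screen; higher means more stored lipid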. Scale: droplet/nuclear area B-score: higher = more stored lipid (overstorage).
In all, the deposit lists about 17,000 reagents; below is an unselected part of those with a known target gene and a result. 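Each column is one replicate's B-score; the combined score over replicates was not deposited, so single values may mislead.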 A plus sign joins genes that one reagent is predicted to hit.

| gene knocked down | dsRNA | droplet/nuclear area B-score, replicate 1 | droplet/nuclear area B-score, replicate 2 | droplet/nuclear area B-score, replicate 3 |
| --- | --- | --- | --- | --- |
| CG3699 | DRSC18171 | 0.972 | -0.454 | – |
| CG3699 | DRSC18642 | 1.49 | -0.404 | – |
| CG6729 | DRSC02984 | 0.0355 | 0.465 | 0.802 |
| CG6729 | DRSC22793 | -1.24 | -0.811 | – |
| CG4511 | DRSC15589 | 2.23 | 0.548 | – |
| CG9962 | DRSC00739 | 0.558 | -0.48 | – |
| CG32445 | DRSC11678 | -1.77 | 0.192 | – |
| wry (weary) | DRSC00352 | 1.46 | 2.78 | – |
| wry (weary) | DRSC00456 | -0.143 | 2.45 | – |
| wry (weary) | DRSC22414 | -0.163 | -0.906 | – |
| CG8180 | DRSC07092 | -0.779 | 1.02 | – |
| CG8180 | DRSC07093 | -0.651 | -1.44 | – |
| CG11581 | DRSC19407 | -1.89 | 1.74 | – |
| CG31371 | DRSC15079 | 0.255 | -0.954 | – |
| Rhau (RHAU helicase) | DRSC03200 | -2.43 | -0.688 | – |
| CG14125 | DRSC10129 | 2.31 | 0.435 | – |
| CG11168 | DRSC14292 | -0.758 | -0.0585 | – |
| qjt (quijote) | DRSC10060 | -0.757 | -1.41 | – |
| LysB (Lysozyme B) | DRSC08673 | -1.33 | -0.914 | – |
| Lipt1 (Lipoyltransferase 1) | DRSC07183 | 0.295 | -0.77 | – |
| CG13365 | DRSC17899 | -0.0186 | -0.638 | – |
| CG8851 | DRSC00718 | -0.897 | -1.51 | – |
| ND-B8 (NADH dehydrogenase (ubiquinone) B8 subunit) | DRSC00449 | -0.47 | 0.859 | – |
| CG31688 + CG31687 | DRSC02116 | -1.32 | 6.2 | – |
| CG42676 | DRSC08227 | 2.41 | 3.81 | – |
| CG42676 | DRSC08392 | 1.64 | -0.168 | – |
| ND-SGDH (NADH dehydrogenase (ubiquinone) SGDH subunit) | DRSC11102 | 0.202 | 1.18 | – |
| CG6244 | DRSC10609 | 2.93 | 0.833 | – |
| CG17129 | DRSC08508 | -0.16 | – | – |
| CG33458 | DRSC22891 | -1.33 | 1.05 | – |
| CG14302 | DRSC14781 | -0.972 | 1.15 | – |
| Brd7-9 (Bromodomain containing 7/9) | DRSC03017 | 2.35 | -0.958 | – |
| CG13359 | DRSC18539 | 0.897 | -0.753 | – |
| CG11263 | DRSC09832 | 0.0189 | 0.546 | – |
| ScsbetaG (Succinyl-coenzyme A synthetase beta subunit, GDP-forming) | DRSC11294 | 1.64 | -0.0305 | – |
| RpL35 (Ribosomal protein L35) | DRSC18347 | 2.59 | -1.35 | – |
| Doc3 (Dorsocross3) | DRSC10480 | 0.935 | 0.347 | – |
| CG14857 | DRSC14981 | -0.492 | -0.402 | – |
| CG14280 | DRSC14761 | -0.015 | 0.174 | – |
| ds (dachsous) | DRSC00815 | -1.09 | 0.817 | – |
| CG42390 | DRSC15866 | 0.132 | 3.41 | – |
| CG42390 | DRSC23064 | -0.622 | 0.115 | – |
| CG42390 | DRSC23065 | -0.293 | 0.0226 | – |
| bin (biniou) | DRSC10332 | 1.1 | 1.78 | – |
| RpS9 (Ribosomal protein S9) | DRSC11273 | 6.51 | -2.32 | – |
| CG18135 | DRSC10295 | -2.87 | -0.783 | 0.0719 |
| Tao | DRSC19573 | -2.1 | -3.55 | 0.483 |
| Tao | DRSC19574 | – | -2.51 | – |
| Tao | DRSC22639 | 0.83 | -1.15 | – |
| Suv3 (Suv3 helicase) | DRSC12335 | -0.979 | -0.375 | 1.51 |
| hpo (hippo) | DRSC06065 | 3.51 | -0.171 | – |
| TpnC25D (Troponin C at 25D) | DRSC02965 | -0.415 | 0.0578 | – |
| Mst57Db (Male-specific RNA 57Db) | DRSC21551 | 0.617 | -1.19 | – |
| EloB (Elongin B) | DRSC16663 | -0.482 | -1.04 | – |
| CG31091 | DRSC15933 | 0.401 | -0.00401 | – |
| Acer (Angiotensin-converting enzyme-related) | DRSC01852 | 0.934 | -0.0673 | – |
| CG14135 | DRSC10140 | 0.484 | 0.519 | – |
| lncRNA:roX2 (long non-coding RNA on the X 2) | DRSC22237 | -1.36 | -0.401 | – |
| Syt7 (Synaptotagmin 7) | DRSC17130 | 0.148 | -0.256 | – |
| Syt7 (Synaptotagmin 7) | DRSC17159 | 0.0378 | -0.325 | – |
| CG6067 | DRSC18399 | -0.115 | 0.323 | – |
| side-II (sidestep II) | DRSC01913 | 0.898 | -0.582 | – |
| side-II (sidestep II) | DRSC01932 | -0.657 | -0.161 | 0.769 |
| side-II (sidestep II) | DRSC02480 | -1.23 | -0.444 | 0.00108 |
| side-II (sidestep II) | DRSC22508 | -2.5 | 2.04 | – |
| Inx5 (Innexin 5) | DRSC20051 | 0.0686 | -0.755 | – |
| CG3638 | DRSC18533 | 0.0151 | 0.135 | – |
| LamC (Lamin C) | DRSC07453 | 0.299 | -0.814 | – |
| CG14629 | DRSC18476 | 1.76 | 2.13 | – |
| Zmynd10 (Zinc finger MYND-type containing 10) | DRSC09826 | -0.573 | 0.037 | – |
| Cep97 (Centrosomal protein 97kDa) | DRSC00637 | 0.0131 | -0.308 | – |
| w (white) | DRSC18850 | -0.0819 | -0.0973 | – |
| CG2209 | DRSC19843 | -0.0195 | -0.173 | -0.0563 |
| CG15153 | DRSC02454 | 2.35 | 1.75 | – |
| CG33177 | DRSC19949 | 0.257 | -0.0113 | – |
| mRpL42 (mitochondrial ribosomal protein L42) | DRSC06235 | 2.37 | 0.538 | – |
| CG32988 | DRSC02692 | 0.104 | -2.2 | – |
| SmB (Small ribonucleoprotein particle protein SmB) | DRSC03437 | -3.13 | -2.45 | – |
| Obp83cd (Odorant-binding protein 83cd) | DRSC12267 | -0.11 | 0.778 | – |
| hale (hale-bopp) | DRSC10882 | -0.65 | -0.899 | – |
| Sse (Separase) | DRSC09746 | 0.68 | -1.96 | – |
| CG10793 | DRSC17760 | 2.8 | 0.785 | – |
| mmy (mummy) | DRSC02002 | 1.46 | 0.292 | – |
| Cht9 (Chitinase 9) | DRSC04079 | 1.12 | 0.417 | – |
| Oga (O-GlcNAcase) | DRSC15901 | -0.207 | 2.3 | – |
| gpp (grappa) | DRSC12515 | -1.37 | -1.56 | – |
| gpp (grappa) | DRSC12516 | 1.51 | 0.889 | – |
| Atg1 (Autophagy-related 1) | DRSC09809 | 0.285 | 0.704 | – |
| Atg1 (Autophagy-related 1) | DRSC09810 | 0.407 | 0.717 | – |
| hng3 (hinge3) | DRSC08367 | 0.0946 | 1.95 | – |
| bero (belly roll) | DRSC03211 | -0.516 | -0.118 | – |
| CG42304 + Snup | DRSC08276 | 2.53 | 1.61 | – |
| CG42304 + Snup | DRSC08277 | 0.519 | 1.61 | – |
| CG42304 + Snup | DRSC22781 | -0.129 | -3.19 | – |
| CG42286 (retired record) | DRSC14357 | -0.519 | -0.628 | – |
| CG32643 | DRSC18962 | -0.239 | -0.812 | – |
| alpha-Spec (alpha Spectrin) | DRSC08704 | 0.236 | -0.372 | – |
| crb (crumbs) | DRSC16927 | 1.91 | 0.11 | – |
| CG7271 | DRSC22561 | -1.11 | 0.236 | – |
| KrT95D (Krueppel target at 95D) | DRSC16725 | 0.0176 | -0.507 | – |
| CG12499 | DRSC14521 | 0.015 | 0.326 | – |
| CG13016 | DRSC06271 | 0.322 | 3.2 | – |
| mRpL36 (mitochondrial ribosomal protein L36) | DRSC10337 | 1.12 | 2.24 | – |
| Cnep1r2 (CTD nuclear envelope phosphatase 1 regulatory subunit 2) | DRSC10950 | -0.704 | 1.72 | – |
| CG2701 | DRSC18590 | 0.34 | 4.03 | – |
